These are yes or no findings as the source states them, for the method shown. In cells and extracts the contact can be indirect.
Target: recombinant human CD44-Fc chimera protein (extracellular domain of CD44, amino acids 22-220) (human) (UniProt P16070)
Assay: pull-down; concentrated conditioned medium mixed with 1 ug CD44-Fc, 37 C for 18 h; magnetic beads 2 h at 37 C; washed in 25 mM Tris-HCl pH 7.6, 200 mM NaCl, 0.1% NP-40, 6% glycerol, 1 mM EDTA, 0.5 mM DTT; western blot with anti-SRGN; only the target purified

By UniProt entry, the sequences of proteins in these tests, tags left out. Where a name states a change or a piece, a line headed by the entry shows the natural chain unless it says otherwise. Residues count along the entry.
UniProt P16070, residues 22-220: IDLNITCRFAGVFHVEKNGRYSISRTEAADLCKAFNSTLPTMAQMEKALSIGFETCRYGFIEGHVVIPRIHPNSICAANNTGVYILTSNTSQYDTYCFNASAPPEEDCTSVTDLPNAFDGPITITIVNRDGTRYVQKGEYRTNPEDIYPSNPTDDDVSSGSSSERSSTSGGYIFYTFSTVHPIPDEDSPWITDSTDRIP

B1: SRGN(S/A) mutant, devoid of GAG modification (ligand, UniProt P10124 28-158)
chain: YPTRRARYQWVRCNPDSNSANCLEEKGPMFELLPGESNKIPRLRTDLFPKTRIQDLNRIFPLSEDYAGAGFGAGAGAGAGAGAGFLTEMEQDYQLVDESDAFHDNLRSLDRNLPSDSQDLGQHGLEEDFML
binding: no binding
